Four molecules from patent publication US20080181940A1, “Method For Accelerating Expression of CPT-1” (Amorepacific Corporation, priority 2003, published 2008) can be followed below.

The test system of the data set is obesity induced by high fat diet. The data set can be described thus: Body weight and food consumption of rats on high fat diet, 8 weeks of dieting. It is filed as in vivo, Sprague-Dawley white male rat. As to conditions: high fat diet + 0.2% of each substance in diet, n = 12. The text has this:
In order to verify the effects of the present composition to the metabolism of lipid in the fat animals induced by dieting high fat diet, Sprague-Dawley white male rat model was selected. In order to verify the effects of genistein, diadzein and glycitein to the obesity induced from high fat diet, rats of 6 weeks old were adapted for a week and assigned 12 rats for each experimental group. Experimental groups are as follows: (1) normal fat diet; (2) high fat diet; (3) high fat diet+genistein 0.2%; (4) high fat diet+L-carnitine 0.2%; (5) high fat diet+genistein 0.2%+L-carnitine 0.2%; (6) high fat diet+diadzein 0.2%; (7) high fat diet+diadzein 0.2%+L-carnitine 0.2%; (8) high fat diet+glycitein 0.2%; and (9) high fat diet+glycitein 0.2%+L-carnitine 0.2%, and the rats were […] for 8 weeks. […] The amount of diet consumed and body weight was measure three times per week during dieting.

The structures appear in SMILES notation.

For `C[N+](C)(C)CC(O)CC(=O)[O-]` [L-carnitine, β-hydroxy-γ-trimethylammonium butyric acid], the “Amount of food consumed” value was determined as 25.7 ± 9.1 g/day.
For the molecule `O=c1c(-c2ccc(O)cc2)coc2cc(O)ccc12` [diadzein], the “Amount of food consumed” value turned out to be 26.8 ± 4.1 g/day.
With `O=c1c(-c2ccc(O)cc2)coc2cc(O)cc(O)c12` [genistein], the “Amount of food consumed” value is 26.5 ± 3.8 g/day.
The figure for `COc1cc2c(=O)c(-c3ccc(O)cc3)coc2cc1O` [glycitein] is 26.7 ± 4.7 g/day.
